We go through 1 substance from article PMC12092005.

By UniProt entry, the sequences of proteins in these tests, tags left out. Where a name states a change or a piece, a line headed by the entry shows the natural chain unless it says otherwise.
UniProt A0A509AQ22: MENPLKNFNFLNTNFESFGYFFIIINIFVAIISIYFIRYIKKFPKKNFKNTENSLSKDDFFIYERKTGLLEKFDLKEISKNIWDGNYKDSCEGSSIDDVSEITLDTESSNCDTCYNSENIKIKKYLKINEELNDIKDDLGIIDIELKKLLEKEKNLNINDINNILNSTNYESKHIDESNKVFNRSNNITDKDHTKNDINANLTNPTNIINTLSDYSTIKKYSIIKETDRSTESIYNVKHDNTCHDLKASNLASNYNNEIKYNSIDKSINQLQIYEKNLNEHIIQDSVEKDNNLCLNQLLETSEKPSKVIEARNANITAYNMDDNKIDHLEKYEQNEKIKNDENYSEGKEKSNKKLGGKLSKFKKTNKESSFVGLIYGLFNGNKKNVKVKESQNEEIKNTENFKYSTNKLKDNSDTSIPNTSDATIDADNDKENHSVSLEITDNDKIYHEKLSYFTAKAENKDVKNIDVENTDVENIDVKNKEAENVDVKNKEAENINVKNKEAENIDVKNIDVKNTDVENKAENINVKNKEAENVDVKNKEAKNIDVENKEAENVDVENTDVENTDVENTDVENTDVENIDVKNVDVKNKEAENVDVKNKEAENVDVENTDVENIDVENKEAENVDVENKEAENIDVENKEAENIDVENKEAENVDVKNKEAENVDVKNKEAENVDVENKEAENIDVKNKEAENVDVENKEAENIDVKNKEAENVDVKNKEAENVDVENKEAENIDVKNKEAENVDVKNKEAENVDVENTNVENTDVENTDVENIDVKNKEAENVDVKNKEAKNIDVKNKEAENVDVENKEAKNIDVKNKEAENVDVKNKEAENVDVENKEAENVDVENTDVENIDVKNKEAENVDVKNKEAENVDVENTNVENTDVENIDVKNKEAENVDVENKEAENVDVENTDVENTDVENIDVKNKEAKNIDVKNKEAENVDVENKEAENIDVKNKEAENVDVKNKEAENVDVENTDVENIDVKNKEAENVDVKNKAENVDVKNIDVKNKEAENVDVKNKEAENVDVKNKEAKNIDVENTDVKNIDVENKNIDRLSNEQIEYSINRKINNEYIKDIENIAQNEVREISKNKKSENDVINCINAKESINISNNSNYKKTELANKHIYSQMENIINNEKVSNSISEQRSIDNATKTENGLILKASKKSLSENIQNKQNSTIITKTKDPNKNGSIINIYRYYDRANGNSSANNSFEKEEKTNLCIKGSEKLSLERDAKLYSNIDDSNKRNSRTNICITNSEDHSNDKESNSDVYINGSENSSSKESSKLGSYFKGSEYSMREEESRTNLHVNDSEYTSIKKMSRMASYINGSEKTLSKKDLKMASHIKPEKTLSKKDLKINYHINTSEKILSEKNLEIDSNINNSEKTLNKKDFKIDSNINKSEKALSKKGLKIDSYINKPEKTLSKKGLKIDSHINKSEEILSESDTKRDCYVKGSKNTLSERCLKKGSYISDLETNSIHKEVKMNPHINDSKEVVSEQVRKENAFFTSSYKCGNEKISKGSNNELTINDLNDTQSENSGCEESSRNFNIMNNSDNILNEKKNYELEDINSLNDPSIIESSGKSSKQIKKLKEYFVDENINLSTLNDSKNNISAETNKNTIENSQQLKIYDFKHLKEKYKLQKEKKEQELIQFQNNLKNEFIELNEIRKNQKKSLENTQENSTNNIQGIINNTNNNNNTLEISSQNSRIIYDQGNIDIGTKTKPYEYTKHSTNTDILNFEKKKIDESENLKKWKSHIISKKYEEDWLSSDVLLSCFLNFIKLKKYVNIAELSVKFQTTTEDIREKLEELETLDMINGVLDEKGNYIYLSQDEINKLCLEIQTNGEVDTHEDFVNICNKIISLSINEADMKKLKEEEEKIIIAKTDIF

These are yes or no findings as the source states them, for the method shown. In cells and extracts the contact can be indirect. Here binding means that the protein was enriched with, or labelled near, the bait; the list need not be complete.

The assay has as its target SUN1-GFP (PbSUN1 with a C-terminal GFP tag) (P. berghei). Nature of the assay: affinity purification with mass spectrometry; GFP-Trap_A beads (2 hr, 4°C) on lysates of purified gametocytes of SUN1-GFP or ALLAN-GFP parasites activated for 6 min (results: 6-8 min), cross-linked with 1% formaldehyde for 10 min before lysis; bound proteins digested with trypsin, LC-MS/MS; WT-GFP gametocytes as control; duplicates.

With “DDRGK-domain containing UFM1 E3 ligase (from UniProt A0A509AQ22)”, the binding result is listed as “binds”.
